# Results published in US20120101099A1, “HISTONE DEACETYLASE INHIBITORS” (ANTHEM BIOSCIENCES PRIVATE LIMITED, priority 2009, published 2012).
# System: PA-1
# Experiment: Cell proliferation assay (MTT)
# Type: cell-based
# Settings: Homo sapiens, PA-1, read-out: Anti-proliferative activity (GI50) PA-1
# Protocol: Cells were seeded in a 96-well cell culture plates at a concentration of 10,000 cells per well and incubated at 37° C. in CO2 incubator.
# Twenty-four hours later cells were treated with different concentrations (100, 10, 1, 0.1, and 0.01 μM) of compound dissolved in DMSO and incubated for 48 hours. For To measurement, 24 hours after seeding the cells, 20 μL of 3-(4.5-dimethyl-2- thiazolyl)-2,5-diphenyl-2H-tetrazolium (MTT) solution per well was added to the T0 plate and incubated for 3 hours at 37° C. in a CO2 incubator.
# The plate containing cells and test compounds was treated similarly after 48 hours of incubation. After 3 hours of MTT addition, well contents were aspirated carefully followed by addition of 100 μL DMSO per well. Plates were agitated to ensure dissolution of the formazan crystals in DMSO and absorbance was read at 570 nm (A570). […] From the percentage growths a dose response curve was generated and GI50 values were interpolated from the growth curves.
smiles,measurement,value
"O=C(CCCCCCC(=O)Nc1ccccc1)NO [SAHA, Suberoylanilide Hydroxamic Acid, reference compound]",GI50,300 ± 50 nM
